Results published in PubChem BioAssay AID1665 (Sanford-Burnham Center for Chemical Genomics, 2009).
The list shows a part of the results.

Experiment: modulators of beta-catenin nuclear translocation, primary screen, imaging, HeLa cells, immunofluorescence, high-content (AID 1665)
Settings: measured here: cell count, cytotoxicity flag, at 5 µM
How it was run: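 Read-out: Nuclear/cytoplasmic beta-catenin signal ratio, % activation | Assay system: Human HeLa cell line | Times: 24 h compound exposure at 37°C, 5% CO2 | Signal: Fluorescence imaging of beta-catenin antibody stain plus DAPI | Dosing: 5 µM primary, 0.02–20 µM confirmation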

Which cell count does the source give for COc1ccccc1OP(C)(=O)Nc1ccc(C)cc1 (stereo unspecified) here?
The cell count was 938 cells.
